Data taken from PMC7237858.
Results are given in words; binding and its absence hold for the method and conditions named. In cells and extracts the contact can be indirect. Binding can be weak; no strength is given. Sequences can lack the tags named with a protein.

Target: T1, serine- and arginine-rich splicing factor 3 (SRSF3), HA fusion, wild type (UniProt P84103)
T1 sequence: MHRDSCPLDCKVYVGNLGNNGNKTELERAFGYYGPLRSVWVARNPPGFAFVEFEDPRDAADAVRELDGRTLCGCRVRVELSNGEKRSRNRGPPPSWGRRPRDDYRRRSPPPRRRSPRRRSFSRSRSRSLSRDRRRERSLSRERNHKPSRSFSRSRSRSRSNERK
Experiment: co-IP; SRSF3-HA (wild type or mutants) and SRSP-Flag (wild type or mutants) plasmids transfected into HEK293T cells; lysates without RNase A (Figure 4C; RNase not mentioned for the mutant panels); complexes co-IPed with anti-HA or anti-Flag antibodies, partner detected by blot

Row | Substance | binding
1 | SRSP-Flag N-terminus (1-60 aa) (human) (domain or fragment) | binds
2 | SRSP-Flag mutant of the proline-arginine-arginine (PRR) motif (human) | binds
